Measured values as given in paper PMC3167847.
No constants are given. Whether binding was seen depends on the method and setting. In cells and extracts the contact can be indirect. Some entries that bind do so weakly or less than the wild type.

Protein sequences, listed by entry. Tags and fused reporters are not part of them.
UniProt P15307: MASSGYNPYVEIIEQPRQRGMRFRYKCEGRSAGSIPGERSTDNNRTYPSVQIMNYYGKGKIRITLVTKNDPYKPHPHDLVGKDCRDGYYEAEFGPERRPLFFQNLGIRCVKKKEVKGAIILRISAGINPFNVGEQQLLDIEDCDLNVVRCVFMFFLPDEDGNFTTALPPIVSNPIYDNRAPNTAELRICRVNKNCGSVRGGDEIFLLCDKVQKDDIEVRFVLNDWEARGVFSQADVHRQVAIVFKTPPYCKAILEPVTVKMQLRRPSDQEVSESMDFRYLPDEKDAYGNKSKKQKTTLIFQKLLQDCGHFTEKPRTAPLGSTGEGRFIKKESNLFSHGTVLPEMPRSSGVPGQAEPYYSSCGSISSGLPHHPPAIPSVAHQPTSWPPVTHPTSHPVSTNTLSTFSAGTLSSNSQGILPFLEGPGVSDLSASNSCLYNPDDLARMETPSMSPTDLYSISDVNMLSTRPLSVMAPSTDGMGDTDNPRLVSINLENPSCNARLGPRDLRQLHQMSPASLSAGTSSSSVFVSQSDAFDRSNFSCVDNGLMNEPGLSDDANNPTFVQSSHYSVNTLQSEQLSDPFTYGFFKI

Key:
[1] = biological target: T1, Inhibitor of Kappa B Epsilon (IκBε) (mouse (endogenous in 11A2 T cell hybridoma)) (UniProt O54910); assay: co-IP; IκBα, -β or -ε immunoprecipitated with their antibodies from 100 µg cytosolic protein of control and TNF-pre-treated 11A2 cells, resting or stimulated with PMA and ionomycin for up to 4 h; immunoblot for associated c-Rel and p65
T1 sequence: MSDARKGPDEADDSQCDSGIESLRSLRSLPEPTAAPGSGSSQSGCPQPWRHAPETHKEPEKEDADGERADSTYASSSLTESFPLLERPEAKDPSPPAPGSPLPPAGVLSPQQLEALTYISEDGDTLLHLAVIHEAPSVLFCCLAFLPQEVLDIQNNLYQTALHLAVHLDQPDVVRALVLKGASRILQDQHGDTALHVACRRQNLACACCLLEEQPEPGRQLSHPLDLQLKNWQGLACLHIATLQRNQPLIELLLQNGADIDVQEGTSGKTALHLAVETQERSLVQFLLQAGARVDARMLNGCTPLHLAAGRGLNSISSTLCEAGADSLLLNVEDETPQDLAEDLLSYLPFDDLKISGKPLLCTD

[2] = biological target: Inhibitor of kappa B alpha (IκBα) (mouse (endogenous in 11A2 T cell hybridoma)) (UniProt Q9Z1E3); assay: as above
[3] = biological target: T2, Inhibitor of kappa B beta (IκBβ) (mouse (endogenous in 11A2 T cell hybridoma)) (UniProt Q60778); assay: as above
T2 sequence: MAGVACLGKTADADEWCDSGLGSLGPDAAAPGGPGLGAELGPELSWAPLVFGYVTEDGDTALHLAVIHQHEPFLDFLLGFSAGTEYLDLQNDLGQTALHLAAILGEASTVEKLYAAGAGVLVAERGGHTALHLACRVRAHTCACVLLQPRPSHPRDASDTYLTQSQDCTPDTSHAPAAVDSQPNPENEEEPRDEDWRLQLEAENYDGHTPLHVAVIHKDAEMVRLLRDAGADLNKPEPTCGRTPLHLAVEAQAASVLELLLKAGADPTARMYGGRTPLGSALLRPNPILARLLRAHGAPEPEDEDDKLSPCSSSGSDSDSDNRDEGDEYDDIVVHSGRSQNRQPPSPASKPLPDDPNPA

[4] = biological target: p65 (RelA) (mouse (endogenous in 11A2 T cell hybridoma)) (UniProt Q04207); assay: co-IP; p65 immunoprecipitated with agarose-conjugated anti-p65 from 100 µg cytosolic protein of control and TNF-pre-treated 11A2 cells, resting or stimulated with PMA and ionomycin for up to 4 h; immunoblot for associated IκBs and c-Rel
[5] = biological target: T3, p65 (RelA) (mouse (endogenous in 11A2 T cell hybridoma)), Q04207; assay: as above; settings: remark: other sources report otherwise
T3 chain: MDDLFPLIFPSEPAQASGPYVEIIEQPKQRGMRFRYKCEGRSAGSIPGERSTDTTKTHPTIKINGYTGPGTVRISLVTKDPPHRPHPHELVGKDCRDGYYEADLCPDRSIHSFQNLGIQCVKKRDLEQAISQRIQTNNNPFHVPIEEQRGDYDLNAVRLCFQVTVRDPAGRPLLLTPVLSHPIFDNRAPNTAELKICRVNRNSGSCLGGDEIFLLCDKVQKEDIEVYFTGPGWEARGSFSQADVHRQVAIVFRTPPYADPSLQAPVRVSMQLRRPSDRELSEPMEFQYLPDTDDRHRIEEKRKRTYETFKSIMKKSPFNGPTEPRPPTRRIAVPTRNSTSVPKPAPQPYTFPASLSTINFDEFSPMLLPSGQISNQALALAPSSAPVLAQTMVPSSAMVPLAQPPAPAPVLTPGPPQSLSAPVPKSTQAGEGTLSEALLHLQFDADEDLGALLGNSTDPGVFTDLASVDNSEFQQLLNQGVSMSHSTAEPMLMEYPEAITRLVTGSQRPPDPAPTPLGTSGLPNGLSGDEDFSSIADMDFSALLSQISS

[6] = biological target: T4, Inhibitor of kappa B alpha (IκBα) (mouse (endogenous in 11A2 T cell hybridoma)), Q9Z1E3; assay: co-IP; IκBα, -β or -ε immunoprecipitated with their antibodies from 100 µg cytosolic protein of control and TNF-pre-treated 11A2 cells, resting or stimulated with PMA and ionomycin for up to 4 h; immunoblot for associated c-Rel and p65; settings: remark: other sources report otherwise
T4 chain: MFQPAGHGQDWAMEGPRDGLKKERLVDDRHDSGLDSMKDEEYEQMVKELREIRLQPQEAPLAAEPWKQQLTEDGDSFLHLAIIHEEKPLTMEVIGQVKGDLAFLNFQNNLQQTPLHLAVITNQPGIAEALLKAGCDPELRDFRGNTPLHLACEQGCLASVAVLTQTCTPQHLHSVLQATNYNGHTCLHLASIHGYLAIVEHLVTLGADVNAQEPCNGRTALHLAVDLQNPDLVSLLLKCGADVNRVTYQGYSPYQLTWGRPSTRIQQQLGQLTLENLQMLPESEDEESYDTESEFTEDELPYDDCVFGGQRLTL

What does the source list for p65 (RelA) (from UniProt Q04207 1-549)?
binding [1]: binds; binding [2]: binds; binding [3]: binds

Which results are given for c-Rel (from UniProt P15307 1-587)?
binding [1]: binds; binding [2]: binds; binding [3]: binds; binding [4]: binds

p50 (from UniProt P25799 1-431) was tested. Which binding [1] did it give?
Its binding is “no binding”.

And the binding [3]?
The binding was “no binding”.

“Inhibitor of kappa B alpha (IκBα) (from UniProt Q9Z1E3 1-314)” was tested. Which binding [4] did it give?
The binding was “binds”.

B1: Inhibitor of kappa B beta (IκBβ) (protein, UniProt Q60778 1-359)
chain: T2 sequence
B1 was tested. Which binding [4] did it give?
Its binding is “binds”.

B2: p50, P25799 1-431 (protein)
chain: MADDDPYGTGQMFHLNTALTHSIFNAELYSPEIPLSTDGPYLQILEQPKQRGFRFRYVCEGPSHGGLPGASSEKNKKSYPQVKICNYVGPAKVIVQLVTNGKNIHLHAHSLVGKHCEDGVCTVTAGPKDMVVGFANLGILHVTKKKVFETLEARMTEACIRGYNPGLLVHSDLAYLQAEGGGDRQLTDREKEIIRQAAVQQTKEMDLSVVRLMFTAFLPDSTGSFTRRLEPVVSDAIYDSKAPNASNLKIVRMDRTAGCVTGGEEIYLLCDKVQKDDIQIRFYEEEENGGVWEGFGDFSPTDVHRQFAIVFKTPKYKDVNITKPASVFVQLRRKSDLETSEPKPFLYYPEIKDKEEVQRKRQKLMPNFSDSFGGGSGAGAGGGGMFGSGGGGGSTGSPGPGYGYSNYGFPPYGGITFHPGVTKSNAGVTHG
With B2 as the molecule, how does the binding [5] read?
Its binding is “no binding”.

And the binding [6]?
Its binding is “no binding”.
